Primary screen of a compound library

The chains behind the UniProt entries cited, without tags or fusion partners. Residues count along the entry.
UniProt A4I591, 1-473: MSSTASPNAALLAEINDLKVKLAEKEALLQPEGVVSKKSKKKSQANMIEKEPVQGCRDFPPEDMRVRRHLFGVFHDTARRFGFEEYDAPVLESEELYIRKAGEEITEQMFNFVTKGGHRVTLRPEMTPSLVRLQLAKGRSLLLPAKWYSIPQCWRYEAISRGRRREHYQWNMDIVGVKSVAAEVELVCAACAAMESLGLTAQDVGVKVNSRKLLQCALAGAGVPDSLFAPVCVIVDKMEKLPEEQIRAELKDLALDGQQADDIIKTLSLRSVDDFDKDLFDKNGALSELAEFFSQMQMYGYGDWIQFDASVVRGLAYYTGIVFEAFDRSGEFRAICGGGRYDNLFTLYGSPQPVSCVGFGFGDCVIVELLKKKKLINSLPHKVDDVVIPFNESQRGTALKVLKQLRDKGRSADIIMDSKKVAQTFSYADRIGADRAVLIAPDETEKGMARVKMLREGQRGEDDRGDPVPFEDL
UniProt Q4DA54, 1-478: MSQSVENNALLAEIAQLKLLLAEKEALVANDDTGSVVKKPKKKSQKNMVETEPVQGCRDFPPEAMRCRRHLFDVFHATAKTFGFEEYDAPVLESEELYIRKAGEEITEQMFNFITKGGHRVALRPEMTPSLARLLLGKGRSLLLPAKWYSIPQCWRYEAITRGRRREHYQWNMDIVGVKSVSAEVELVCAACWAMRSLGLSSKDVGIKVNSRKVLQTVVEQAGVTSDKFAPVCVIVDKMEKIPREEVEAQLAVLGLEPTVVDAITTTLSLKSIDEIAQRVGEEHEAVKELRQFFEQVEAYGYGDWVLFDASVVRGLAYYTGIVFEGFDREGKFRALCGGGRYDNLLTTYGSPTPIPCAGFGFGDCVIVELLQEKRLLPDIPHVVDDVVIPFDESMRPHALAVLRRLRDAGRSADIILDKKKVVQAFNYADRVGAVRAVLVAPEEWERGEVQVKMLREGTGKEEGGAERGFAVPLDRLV

LiHisRS: 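Histidine-tRNA ligase, Leishmania infantum (UniProt A4I591). Enzyme assay of histidyl-tRNA synthetase; the read-out is not stated. Compounds at 30 µM. Direction is inferred from retests: higher values go with stronger inhibition. The assay is labelled LdHisRS but filed under L. infantum. Of about 69,000 compounds tested this way, about 410 (0.6%) reached 50% or more in at least one test.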
TcHisRS: 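Histidine-tRNA ligase, Trypanosoma cruzi CL Brener (UniProt Q4DA54). Enzyme assay of histidyl-tRNA synthetase; the read-out is not stated. Compounds at 30 µM. Higher reads as stronger inhibition (inferred: compounds with an IC50 in retests scored well above the rest). About 69,000 compounds were tested under these conditions; 0.045% (about 31) showed 50% or more at least once.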

Values are the deposited “Percent Effect”, in %. The controls that fix the scale are not given in the record; negative values are as filed. The compounds are a random part of those screened.

| SMILES | LiHisRS | TcHisRS |
|---|---|---|
| `CC(C)c1cc(NC(=O)CN2CCc3c(nc(C(C)C)n3C)C2)on1` | 8.219 | 1.527 |
| `CCn1nc(C)c(NC(=O)CCn2ncc3cc(C)ccc32)c1C` | 15.52 | -1.739 |
| `O=C(NCc1ccco1)[C@@H]1C[C@H]2OCC[C@H]2N(c2ncc(F)cn2)C1` | 4.167 | 0 |
| `COc1cccc(C(=O)NCCCN2CCc3ccccc3C2)c1OC` | 1.351 | -1.887 |
| `Cc1oc(-c2ccco2)nc1CC(=O)N1CCC(CCO)C1` (stereo unspecified) | 9.917 | 6.723 |
| `CCN(Cc1nc(COC)no1)Cc1cccnc1NC` | 12.77 | 8.671 |
| `CSCCC(=O)N1CCCC(c2nccn2Cc2ccncc2)C1` (stereo unspecified) | 12.9 | 3.061 |
| `Cn1cccc1C(=O)NCc1cn2c(n1)CN(Cc1ccccn1)CC2` | 7 | 3.061 |
| `Cc1ccc(F)c(-n2nnc(C(=O)O)c2-c2ccncc2)c1` | 25.71 | -1.087 |
| `Cc1ccc2oc(=O)n(CCC(=O)N3CCN(C)C(=O)C3)c2c1` | 15.05 | 2.469 |
| `Fc1ccc(C(NCc2nnc(-c3ccco3)o2)C2CCC2)cc1` (stereo unspecified) | 2.632 | 8.772 |
| `Cc1cccc(CNCC2COC3(CCCCC3)O2)c1C` (stereo unspecified) | 7.071 | 0.6452 |
| `CCC[C@H]1CN(S(C)(=O)=O)C[C@@H]1NC(=O)Cc1ccc(F)cc1C` | 8.065 | 5.263 |
| `CC1CCN(S(=O)(=O)N2C[C@H](c3ccccc3)[C@@H](N)C2)CC1` | 4.839 | 5.844 |
| `Cc1cnccc1-n1nc(C(C)C)nc1CCc1cnccn1` | 15.83 | 7.895 |
| `O=C(c1ncn2c1CNS(=O)(=O)c1ccccc1-2)N1CCCCC1` | 19.66 | 5.882 |
| `COCC(=O)N1CC2(CCN(c3ccccc3)C2)C1` | 18 | 4.598 |
| `CCCN(Cc1nccn1C)C(=O)c1cc(C)nc(C)n1` | 17.5 | -8.696 |
| `O=C(c1ccccn1)N1CCc2ncnc(N3CCOCC3)c2CC1` | 8.571 | 3.922 |
| `COCCC(=O)N1CCCC1c1nccnc1Nc1ncccn1` (stereo unspecified) | 15.94 | 10.99 |
| `COCc1nc(C(=O)N2CCCC2c2cc(C)on2)cs1` (stereo unspecified) | 7.826 | 2.254 |
| `CCC(C)N(C)CCNC(=O)NCc1cccc(-n2cncn2)c1` (stereo unspecified) | 9.434 | -2.542 |
| `O=C1N(Cc2ccccc2F)CCCC12CCN(C1CCSCC1)C2` (stereo unspecified) | 20.39 | 12.03 |
| `CC(C)(C)n1ccc(C(=O)N2CCCC(c3ncc[nH]3)C2)c1` (stereo unspecified) | 14.52 | 4.545 |
| `CN(C)C(=O)Cn1cnc2c(Br)cccc2c1=O` | 10.36 | 4.972 |
| `CCS(=O)(=O)N1CCc2cc(C(=O)N(C)C)c(NCC3CC3)nc2CC1` | 9.722 | -1.869 |
| `CCN(CC)CCN(C)c1nc(-c2ccc(Cl)cc2)nc2c1CNC2` | 12.8 | 22.55 |
| `O=C(c1cc(-n2cnnn2)ccc1Cl)N1CCN(c2ccccc2)CC1` | 10 | -1.242 |
| `CC(C)CNC(=O)c1cc(Br)c2c(c1)OCCO2` | 14.52 | 5.747 |
| `O=C(Nc1c(F)cccc1F)N1CC(c2nc(C3CC3)no2)C1` | 10.43 | 2.062 |
| `CC(C)n1cc(-c2c(C#N)c(N)nc3c2COCC3)cn1` | -8.696 | 0.9901 |
| `CN1CCCC1CNC(=O)CCCOc1ccc(Br)cc1` (stereo unspecified) | 8.929 | 7.101 |
| `COCCN(C)C[C@@H]1CN(C(=O)c2ccc(C)cc2)C[C@@H]1CO` | 6.742 | 7.538 |
| `O=C(CN1CCOC1=O)N1CCC2(CCc3ccccc32)CC1` | 22.67 | 2.89 |
| `CC(C)c1ccc(CS(=O)(=O)CC(=O)NCc2ccccc2F)cc1` | 12.8 | 1.961 |
| `CCn1cnnc1C1CCN(C(=O)COc2ccccc2OC)CC1` | 11.32 | 0.8333 |
| `CC(=O)NCC(=O)N1Cc2nccn2CC(CN(C)C(C)C)C1` (stereo unspecified) | 14.71 | 6.897 |
| `O=S(=O)(NCc1ccccc1)Nc1ccc(-n2cncn2)cc1` | 18.03 | 4 |
| `CCOCC(O)CN1CCN(C(=O)C2CCC2)CC1` (stereo unspecified) | -0.8772 | 3.779 |
| `COC[C@@]12CC[C@@H](N3CCOCC3)C[C@H]1CCN(c1ncccc1C)C2` | 16.67 | 2.041 |
| `CCNc1cc2c(nn1)CCN(C(=O)c1c(C)noc1C)C2` | 20.54 | 5.78 |
| `CCSCCC(=O)N1CCc2[nH]nc(COc3ccccc3)c2C1` | 16.67 | 10.89 |
| `CC(=O)c1cccc(-c2nc3c([nH]2)CCNC3)c1F` | 18.42 | 3.911 |
| `COc1ccc(OC)c(CCC(=O)Nc2cc(C)n[nH]2)c1` | 12.9 | 0 |
| `Cc1noc(C)c1CN1C[C@@H](C(=O)O)[C@H](C(C)C)C1` | -9.859 | 4.459 |
| `CNC(=O)C1CCC2(CCN(c3nncs3)CC2)CO1` (stereo unspecified) | 0 | 3.448 |
| `Cc1cccn2c(CC(=O)N3CCC(Oc4ncccn4)CC3)cnc12` | -3.797 | 0.431 |
| `FC(F)(F)c1ccccc1CN1CCOC[C@H](Oc2cccnc2)C1` | 25.68 | 9.783 |
| `COCC(=O)Nc1cnc(N2CCCC2)nc1` | 3.39 | 2.439 |
| `Cn1c(N2CCOCC2)nc2cc(C(=O)NCc3cccnc3)ccc21` | 23.46 | -4.018 |
| `COCC(=O)NCCc1ccc(Cl)s1` | 8.772 | -0.8403 |
| `O=S(=O)(Cc1nc(C2CC2)no1)c1cc(F)ccc1F` | 12.4 | 3.571 |

The last 3 entries again:

| SMILES | LiHisRS | TcHisRS |
|---|---|---|
| `Cn1c(N2CCOCC2)nc2cc(C(=O)NCc3cccnc3)ccc21` | 23.46 | -4.018 |
| `COCC(=O)NCCc1ccc(Cl)s1` | 8.772 | -0.8403 |
| `O=S(=O)(Cc1nc(C2CC2)no1)c1cc(F)ccc1F` | 12.4 | 3.571 |

From ChEMBL document CHEMBL3988442, “University of Dundee, Small-Polar-MMV Screening Library” (2021).